For assay [1], the target named is T1, Arabidopsis G-protein β subunit AGB1, Gal4 DNA-binding domain fusion (pGBKT7-AGB1) (Arabidopsis thaliana) (UniProt P49177).
T1 sequence: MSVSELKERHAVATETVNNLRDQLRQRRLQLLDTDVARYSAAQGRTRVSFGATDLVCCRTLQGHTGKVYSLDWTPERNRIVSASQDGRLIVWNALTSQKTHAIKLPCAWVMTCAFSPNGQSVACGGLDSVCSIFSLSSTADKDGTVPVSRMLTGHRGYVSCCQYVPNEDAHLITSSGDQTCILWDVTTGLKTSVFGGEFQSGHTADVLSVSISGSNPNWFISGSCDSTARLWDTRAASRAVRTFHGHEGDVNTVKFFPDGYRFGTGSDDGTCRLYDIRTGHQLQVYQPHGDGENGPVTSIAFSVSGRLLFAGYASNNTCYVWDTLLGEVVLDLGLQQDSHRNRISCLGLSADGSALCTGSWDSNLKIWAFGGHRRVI
Description: two-hybrid; pGBK-AGB1 and pGAD-AP-3µ co-introduced into S. cerevisiae AH109; growth on SD/–Leu/–Trp/–His (TDO), reporter HIS3; at least four colonies.

Assay [2] has as its target T2, nYFP-fused AGB1 (Arabidopsis thaliana) (UniProt P49177).
T2 sequence: T1 sequence
The assay is described as follows: split reporter; bimolecular fluorescence complementation of nYFP and cYFP fusions co-expressed in onion epidermal cells by particle bombardment.

No constants are given. Whether binding was seen depends on the method and setting. For some assays here: Binding seen in cells or lysates may run through a third protein. Some binding calls cover weakened binding; strength is not graded here. Tags and fused reporters may be left off the sequences shown.

B1: AP-3µ, Gal4 activation domain fusion (pGADT7-Rec-AP-3µ, full-length ORF) (protein, UniProt F4I562 1-415)
chain: MLQCIFLISDSGEVMLEKQLTGHRVDRSICAWFWDQYISQGDSFKALPVIASPTHYLFQIVRDGITFLACSQVEMPPLMAIEFLCRVADVLSEYLGGLNEDLIKDNFIIVYELLDEMIDNGFPLTTEPSILKEMIAPPNLVSKMLSVVTGNASNVSDTLPSGAGSCVPWRPTDPKYSSNEVYVDLVEEMDAIVNRDGELVKCEIYGEVQMNSQLTGFPDLTLSFANPSILEDMRFHPCVRYRPWESHQVLSFVPPDGEFKLMSYRVKKLKNTPVYVKPQITSDSGTCRISVLVGIRSDPGKTIESITLSFQLPHCVSSADLSSNHGTVTILSNKTCTWTIGRIPKDKTPCLSGTLALEPGLERLHVFPTFKLGFKIMGIALSGLRIEKLDLQTIPPRLYKGFRAQTRAGEFDVRL
Take B1: the binding result in assay [1] was “binds”.

B2: cYFP-fused AP-3µ (protein, UniProt F4I562 1-415)
chain: B1 chain
In the case of B2, in assay [2], the binding entry is on record as “binds”.
